For test [1], the target named is Lysine demethylase 6A (human (endogenous in HCT116)) (UniProt O15550). The test can be described thus: co-IP.
Test [2] addresses NF-KB P65 (human (endogenous in human CRC cells; cell line of the co-IP not named)) (UniProt Q04206). The test can be described thus: co-IP.

Protein sequences, listed by entry. Tags and fused reporters are not part of them.
UniProt O15550: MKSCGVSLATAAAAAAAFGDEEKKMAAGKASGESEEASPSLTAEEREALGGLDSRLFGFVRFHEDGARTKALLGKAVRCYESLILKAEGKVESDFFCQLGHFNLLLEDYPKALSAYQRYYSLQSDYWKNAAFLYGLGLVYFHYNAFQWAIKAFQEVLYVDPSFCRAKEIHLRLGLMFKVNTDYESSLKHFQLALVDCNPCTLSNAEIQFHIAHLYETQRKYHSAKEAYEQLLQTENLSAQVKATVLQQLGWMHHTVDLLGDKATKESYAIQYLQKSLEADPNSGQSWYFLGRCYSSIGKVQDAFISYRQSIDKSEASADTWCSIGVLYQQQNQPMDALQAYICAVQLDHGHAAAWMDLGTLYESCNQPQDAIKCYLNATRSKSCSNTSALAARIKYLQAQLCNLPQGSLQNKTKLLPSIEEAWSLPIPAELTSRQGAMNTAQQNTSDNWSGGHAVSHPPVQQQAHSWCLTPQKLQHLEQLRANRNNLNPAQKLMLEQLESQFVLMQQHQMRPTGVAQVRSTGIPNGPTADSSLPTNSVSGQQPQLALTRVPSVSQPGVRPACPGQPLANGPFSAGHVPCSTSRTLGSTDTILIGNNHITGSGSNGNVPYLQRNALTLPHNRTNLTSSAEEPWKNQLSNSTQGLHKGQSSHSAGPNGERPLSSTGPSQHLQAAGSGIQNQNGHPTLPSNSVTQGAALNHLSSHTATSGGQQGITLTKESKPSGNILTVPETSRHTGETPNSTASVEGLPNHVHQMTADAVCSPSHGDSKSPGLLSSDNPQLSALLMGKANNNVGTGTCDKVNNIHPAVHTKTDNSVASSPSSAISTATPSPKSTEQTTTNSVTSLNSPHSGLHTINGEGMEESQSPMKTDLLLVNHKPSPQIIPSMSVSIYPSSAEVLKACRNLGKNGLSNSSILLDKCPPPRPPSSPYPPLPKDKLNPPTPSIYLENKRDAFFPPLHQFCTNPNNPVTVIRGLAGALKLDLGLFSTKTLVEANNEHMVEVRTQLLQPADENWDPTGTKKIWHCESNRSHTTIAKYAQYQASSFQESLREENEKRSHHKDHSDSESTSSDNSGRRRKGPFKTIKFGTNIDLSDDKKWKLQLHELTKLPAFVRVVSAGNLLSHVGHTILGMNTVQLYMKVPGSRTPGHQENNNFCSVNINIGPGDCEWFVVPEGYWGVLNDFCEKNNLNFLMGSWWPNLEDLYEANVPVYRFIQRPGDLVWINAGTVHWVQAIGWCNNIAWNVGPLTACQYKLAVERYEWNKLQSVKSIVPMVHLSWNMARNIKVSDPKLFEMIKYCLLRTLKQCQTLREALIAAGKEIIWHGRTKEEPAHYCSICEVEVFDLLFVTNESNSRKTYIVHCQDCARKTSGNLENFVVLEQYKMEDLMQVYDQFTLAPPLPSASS
UniProt Q04206: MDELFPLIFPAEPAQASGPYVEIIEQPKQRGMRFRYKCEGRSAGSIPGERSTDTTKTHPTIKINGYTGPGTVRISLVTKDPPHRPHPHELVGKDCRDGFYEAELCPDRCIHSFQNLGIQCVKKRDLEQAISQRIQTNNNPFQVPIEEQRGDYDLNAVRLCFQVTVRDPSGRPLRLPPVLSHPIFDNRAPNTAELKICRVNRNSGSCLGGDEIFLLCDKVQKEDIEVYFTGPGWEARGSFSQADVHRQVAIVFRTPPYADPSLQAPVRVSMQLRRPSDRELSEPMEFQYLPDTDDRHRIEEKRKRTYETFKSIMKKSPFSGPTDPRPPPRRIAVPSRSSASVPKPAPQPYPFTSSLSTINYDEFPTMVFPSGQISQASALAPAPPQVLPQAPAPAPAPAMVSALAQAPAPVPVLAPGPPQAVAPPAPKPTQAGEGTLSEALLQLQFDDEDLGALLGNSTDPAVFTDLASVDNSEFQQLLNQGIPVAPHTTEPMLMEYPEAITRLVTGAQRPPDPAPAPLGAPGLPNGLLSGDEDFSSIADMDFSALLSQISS
UniProt P12004: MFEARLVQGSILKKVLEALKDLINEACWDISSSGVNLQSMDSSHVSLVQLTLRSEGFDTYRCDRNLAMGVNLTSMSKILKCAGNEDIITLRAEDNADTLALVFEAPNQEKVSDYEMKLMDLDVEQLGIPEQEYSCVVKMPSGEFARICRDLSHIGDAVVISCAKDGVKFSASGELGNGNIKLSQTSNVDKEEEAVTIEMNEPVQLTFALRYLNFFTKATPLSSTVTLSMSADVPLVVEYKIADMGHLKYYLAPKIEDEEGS
UniProt Q15022: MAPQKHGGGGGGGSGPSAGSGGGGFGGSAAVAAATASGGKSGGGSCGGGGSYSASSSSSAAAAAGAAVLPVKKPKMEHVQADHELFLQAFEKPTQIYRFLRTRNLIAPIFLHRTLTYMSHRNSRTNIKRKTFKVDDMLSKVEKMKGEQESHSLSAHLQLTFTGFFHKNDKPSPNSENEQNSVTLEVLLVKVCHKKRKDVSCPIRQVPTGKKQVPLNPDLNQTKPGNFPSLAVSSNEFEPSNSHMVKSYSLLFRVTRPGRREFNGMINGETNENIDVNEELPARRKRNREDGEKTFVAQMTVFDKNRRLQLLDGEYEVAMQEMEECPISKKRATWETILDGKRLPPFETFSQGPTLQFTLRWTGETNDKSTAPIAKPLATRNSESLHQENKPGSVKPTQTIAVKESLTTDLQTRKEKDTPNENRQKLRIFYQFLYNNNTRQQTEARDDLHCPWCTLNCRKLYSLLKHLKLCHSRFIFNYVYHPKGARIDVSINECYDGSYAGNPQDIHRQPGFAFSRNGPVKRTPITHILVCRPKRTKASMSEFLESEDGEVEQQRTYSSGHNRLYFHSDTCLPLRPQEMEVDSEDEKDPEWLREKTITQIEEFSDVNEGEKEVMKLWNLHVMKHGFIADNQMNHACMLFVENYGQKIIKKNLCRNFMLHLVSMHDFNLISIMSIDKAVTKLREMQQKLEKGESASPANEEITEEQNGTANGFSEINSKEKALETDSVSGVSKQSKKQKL

No constants are given. Whether binding was seen depends on the method and setting. Binding seen in cells or lysates may run through a third protein. Some results given as binding are weak or reduced against the parent protein; the word gives no strength.

Turning to “Proliferating cell nuclear antigen (from UniProt P12004 1-261)”, the binding entry in test [1] is on record as “binds”. With SUZ12 (from UniProt Q15022 1-739), the binding result in test [2] is given as “binds”.
